# Data as given in PubChem BioAssay AID1259285 (Sanger Institute, 2017)
# Aim: 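Search of the kinome for kinases worth combining with drugs in colon cancer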 (primary screen)
# System: human HCC56 colorectal cancer cells
# Reagents: siRNA pool against human genes
# Challenge: DMSO vehicle, or anchor drug BYL719 at 1 µM, cetuximab at 5 µg/ml, or trametinib at 10 nM
# Detection: 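Replicate-averaged viability relative to non-targeting siRNA, expressed as a robust z-score from controls, plus a synergy score for each of three anchor drugs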
# Direction: viability robust z-score, no drug: higher = more viable cells, weaker knock-down effect; viability vs non-targeting pool, no drug: higher = more viable cells; synergy score with BYL719: higher = stronger combined killing with BYL719
# Call rule: 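a knock-down counts as essential if its viability z-score without drug is under -3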
# Calls: active = essential without drug; inactive = no change without drug
# In all, the deposit lists 794 reagents; this is a random part of them. 20 of them (2.5%) count as active. 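Calls rest on the drug-free arm alone and ignore synergy scores; viability ratios seem to be capped at 1.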 Further read-outs or replicates are left out here. No sequences are given here. Not given: the amount of reagent, the time to read-out.
gene knocked down,"viability robust z-score, no drug","viability vs non-targeting pool, no drug",synergy score with BYL719,Call
WHR1 (GeneID 8859),0.458,1,-0.162,inactive
CDADC1 (GeneID 81602),0.458,1,-0.0587,inactive
CDKL5 (GeneID 6792),0.458,1,-0.162,inactive
MUSK (GeneID 4593),-1.65,0.819,-0.0124,inactive
EPHA2 (GeneID 1969),0.458,1,-0.112,inactive
IDH2 (GeneID 3418),0.458,1,-0.162,inactive
ALPK2 (GeneID 115701),0.458,1,-0.11,inactive
MAP4K4 (GeneID 9448),0.458,1,-0.162,inactive
PDK3 (GeneID 5165),0.149,0.973,-0.112,inactive
PANK1 (GeneID 53354),0.458,1,-0.117,inactive
WEE1 (GeneID 7465),-6.17,0.43,0.0118,active
MAPK6 (GeneID 5597),0.458,1,-0.102,inactive
PRKAR1A (GeneID 5573),0.458,1,-0.0459,inactive
PHKG2 (GeneID 5261),0.458,1,-0.162,inactive
EPHA5 (GeneID 2044),0.458,1,-0.13,inactive
PDK1 (GeneID 5163),0.458,1,-0.052,inactive
UCK1 (GeneID 83549),0.458,1,-0.00888,inactive
CDK1 (GeneID 983),0.458,1,-0.0831,inactive
DAPK3 (GeneID 1613),0.458,1,0.044,inactive
MAP3K8 (GeneID 1326),-2.38,0.756,-0.0369,inactive
MAPKAPK5 (GeneID 8550),0.458,1,-0.0295,inactive
TAF1 (GeneID 6872),0.458,1,-0.098,inactive
CLK2 (GeneID 1196),0.458,1,-0.162,inactive
TEK (GeneID 7010),0.458,1,-0.162,inactive
SGK1 (GeneID 6446),0.458,1,-0.162,inactive
TSSK3 (GeneID 81629),0.458,1,-0.0511,inactive
MAK (GeneID 4117),0.458,1,-0.127,inactive

Entries listed so far called active, once more:
gene knocked down,"viability robust z-score, no drug","viability vs non-targeting pool, no drug",synergy score with BYL719,Call
WEE1 (GeneID 7465),-6.17,0.43,0.0118,active

The results go on.
gene knocked down,"viability robust z-score, no drug","viability vs non-targeting pool, no drug",synergy score with BYL719,Call
TESK2 (GeneID 10420),0.458,1,-0.162,inactive
TNIK (GeneID 23043),0.458,1,-0.0278,inactive
PFKFB3 (GeneID 5209),-0.0941,0.953,0.0503,inactive
EPHA8 (GeneID 2046),0.458,1,-0.113,inactive
RUNX1 (GeneID 861),0.362,0.992,0.0389,inactive
SYK (GeneID 6850),-3.7,0.643,0.0943,active
DSTYK (GeneID 25778),0.458,1,-0.162,inactive
TK2 (GeneID 7084),0.458,1,-0.162,inactive
SHPK (GeneID 23729),0.458,1,-0.162,inactive
NUP98 (GeneID 4928),-0.733,0.898,0.216,inactive
DIS3 (GeneID 22894),0.458,1,-0.0601,inactive
DCLK2 (GeneID 166614),-2.77,0.723,-0.0505,inactive
CDK5R2 (GeneID 8941),0.458,1,-0.105,inactive
MOK (GeneID 5891),0.458,1,-0.122,inactive
BRSK2 (GeneID 9024),0.458,1,-0.0552,inactive
RBKS (GeneID 64080),0.458,1,-0.162,inactive
BRSK1 (GeneID 84446),0.458,1,-0.0835,inactive
DBF4 (GeneID 10926),0.458,1,-0.162,inactive
ALK (GeneID 238),-2.3,0.763,-0.0505,inactive
CDKN1A (GeneID 1026),0.458,1,-0.0973,inactive
PIK3R1 (GeneID 5295),0.458,1,-0.162,inactive
LCK (GeneID 3932),-1.33,0.846,-0.0439,inactive
BCOR (GeneID 54880),0.458,1,-0.0291,inactive
